Measurements: publication PMC3959648

Amino acid sequences for entries named in this document (tags omitted). Residues count along the entry.
UniProt Q07666, 150-260: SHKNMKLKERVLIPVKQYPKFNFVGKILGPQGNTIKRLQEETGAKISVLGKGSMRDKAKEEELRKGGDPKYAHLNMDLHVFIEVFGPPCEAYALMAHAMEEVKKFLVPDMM

Experiments:
T-STAR KH = biological target: T1, T-STAR KH (UniProt O75525); assay: NMR 15N-1H HSQC CSP; details: T-STAR KH: 10 mM Tris-HCl pH 7 (also given as pH 6.5, 50 mM NaCl, 30 C), Sam68 KH: 20 mM sodium phosphate pH 7.0, 50 mM NaCl, 20 C, about 0.2 mM protein, recombinant protein, residues 50-160, protein details: N-terminal His tag removed by TEV
T1 sequence (looked up): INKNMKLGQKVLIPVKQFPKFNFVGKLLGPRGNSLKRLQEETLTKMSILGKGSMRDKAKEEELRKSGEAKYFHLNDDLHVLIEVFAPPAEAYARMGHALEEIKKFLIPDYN

Sam68 KH = Sam68 KH (UniProt Q07666); assay: NMR 15N-1H HSQC CSP; details: T-STAR KH: 10 mM Tris-HCl pH 7 (also given as pH 6.5, 50 mM NaCl, 30 C); Sam68 KH: 20 mM sodium phosphate pH 7.0, 50 mM NaCl, 20 C; about 0.2 mM protein; recombinant protein; residues 150-260; protein details: N-terminal His tag removed by TEV
[1] = intermediate exchange, higher affinity than AAAUAA
[2] = smaller CSP than 6mer, data not shown

## AAAAAAUAA
T-STAR KH; [1]
  binding result: binds

## AAAUA
T-STAR KH; [2]
  binding result: binds more weakly

## AAAUAA
Sam68 KH
  binding result: binds

## AAAUAU
T-STAR KH
  binding result: binds

## AAAUUU
T-STAR KH; lower affinity than AAAUAA
  binding result: binds more weakly
Sam68 KH
  binding result: binds

## AAUAA
T-STAR KH; [2]
  binding result: binds more weakly

## AAUAAA
T-STAR KH
  binding result: binds

## AAUAUU
T-STAR KH
  binding result: binds

## AAUUUU
T-STAR KH
  binding result: binds

## AUUAAA
T-STAR KH
  binding result: binds

## AUUUUU
T-STAR KH
  binding result: binds

## UAAAAA
T-STAR KH
  binding result: binds

## UAAAAU
T-STAR KH
  binding result: binds
Sam68 KH
  binding result: binds

## UAAAUA
T-STAR KH
  binding result: binds

## UAAAUU
T-STAR KH
  binding result: binds

## UUUAAA
T-STAR KH
  binding result: binds

## UUUAAAUAA
T-STAR KH; [1]
  binding result: binds

## UUUUUU [UUUUUU (polyU 6mer)]
T-STAR KH
  binding result: binds

For some assays here: The comparison behind a weaker result is the experiment's own reference, which may not be listed here. For some assays here: Where a protein sequence is shown, tags need not be part of it. The exact form of at least one protein or probe is not confirmed. At least one verdict rests on a figure or table, not on a statement of the authors.
